No constants are given. Whether binding was seen depends on the method and setting. Some entries that bind do so weakly or less than the wild type. Blank lines part the entries; values can stand above or below the binder they belong to.
Experiments:
CD38 on cells [1] = target: T1, CD38 on cells (UniProt P28907 1-300); assay: FACS
T1 construct: whole, on cells; Endogenous CD38 on cell lines used in FACS or microscopy; also called DOM11; T10

Amino acid sequences for entries named in this document (tags omitted). A change or cut given only in a name is not applied to a line headed by its entry. Residues count along the entry.
UniProt P28907: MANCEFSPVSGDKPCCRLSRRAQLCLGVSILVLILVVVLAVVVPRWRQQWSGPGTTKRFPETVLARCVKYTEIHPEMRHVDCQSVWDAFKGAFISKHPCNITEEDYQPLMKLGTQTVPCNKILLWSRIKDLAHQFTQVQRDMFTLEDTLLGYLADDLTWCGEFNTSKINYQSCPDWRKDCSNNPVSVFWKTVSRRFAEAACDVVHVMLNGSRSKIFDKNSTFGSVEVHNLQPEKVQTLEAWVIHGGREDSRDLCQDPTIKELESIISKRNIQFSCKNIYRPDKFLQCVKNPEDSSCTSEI
UniProt P13591, residues 20-858: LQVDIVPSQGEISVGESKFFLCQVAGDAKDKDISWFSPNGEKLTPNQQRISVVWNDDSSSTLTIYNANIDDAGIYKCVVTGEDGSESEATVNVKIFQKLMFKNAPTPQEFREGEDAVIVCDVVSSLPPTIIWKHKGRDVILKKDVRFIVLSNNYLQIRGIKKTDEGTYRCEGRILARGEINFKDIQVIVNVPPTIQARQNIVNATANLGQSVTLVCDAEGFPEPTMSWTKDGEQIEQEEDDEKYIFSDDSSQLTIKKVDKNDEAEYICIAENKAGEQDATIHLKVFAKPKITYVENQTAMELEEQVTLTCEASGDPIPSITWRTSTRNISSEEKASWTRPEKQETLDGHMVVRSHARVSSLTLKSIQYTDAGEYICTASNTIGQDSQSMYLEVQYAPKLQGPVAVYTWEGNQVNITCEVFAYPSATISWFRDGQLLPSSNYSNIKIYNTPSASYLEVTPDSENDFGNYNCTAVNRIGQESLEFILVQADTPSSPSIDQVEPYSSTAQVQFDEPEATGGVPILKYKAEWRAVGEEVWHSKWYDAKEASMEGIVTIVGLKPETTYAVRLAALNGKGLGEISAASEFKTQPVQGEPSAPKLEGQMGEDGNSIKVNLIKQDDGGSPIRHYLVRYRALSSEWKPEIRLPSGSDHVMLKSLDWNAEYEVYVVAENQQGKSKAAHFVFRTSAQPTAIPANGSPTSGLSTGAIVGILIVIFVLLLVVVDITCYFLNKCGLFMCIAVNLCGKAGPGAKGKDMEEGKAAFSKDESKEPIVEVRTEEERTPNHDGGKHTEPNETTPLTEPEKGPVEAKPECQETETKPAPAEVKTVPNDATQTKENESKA

CD38 on cells [2] = target: T1, CD38 on cells; assay: FACS on RPMI cells
CD38 on cells [3] = target: T1, CD38 on cells; assay: FACS on RPMI cells (CD38+/138+)
Protocol: All dAbs were analysed by FACS on antigen positive and negative cell lines using the following method.
The determination of cell binding by FACS was carried out as follows: cells were centrifuged at 250 g for 5 minutes and the growth medium was removed. The cells were resuspended in FACS incubation buffer at 4° C. at a density of 2×10⁶ cells/ml. The cells were blocked by incubating for 15 minutes at 4° C. in FACS incubation buffer. Fifty microliters of 2× stock of primary antibody (anti-CD38 FITC, anti-CD138 FITC or mIgG1 FITC conjugated isotype control (all BD Biosciences) was added; or dAb was added to cells in FACS incubation buffer and incubated for 30-60 minutes at 4° C. The cells were then washed once in FACS incubation buffer. One hundred microliters of secondary antibody (rabbit anti-Vk) was added to cells in FACS incubation buffer and incubated 30-60 minutes at 4° C. The cells were washed once in FACS incubation buffer. Then 100 ul of 1× tertiary antibody was added to the cells in FACS incubation buffer and incubated for 30-60 mins at 4° C. (for dAbs the tertiary antibody is anti-rabbit FITC (Sigma)). The cells were washed twice in FACS incubation buffer. The cell pellet was resuspend in 200 ul FACS incubation buffer+viable cell marker (BD Viaprobe). The cells were then analyzed by flow cytometry.

[4] = target: T2, CD38 immobilised on Biacore CM5 chip (UniProt P28907 43-300, limits assumed); assay: SPR, co-injection on immobilised CD38, 500 nM
T2 construct: also called DOM11

CD38 on cells [5] = target: T1, CD38 on cells; assay: FACS on RPMI cells (CD38+/CD138+), dAb at 500 nM
[6] = target: T2, CD38 immobilised on Biacore CM5 chip; assay: SPR (Biacore) co-injection on immobilised CD38, dAbs at 500 nM
Protocol: Anti-CD38, anti-CEA and anti-CD56 dAbs that were identified as FACS positive clones were in addition analysed by Biacore using the following procedure. The CM5 chip surface was activated by flushing 1:1 EDC/NHS (0.4M1-ethyl-3-(3-dimenthylaminopropyl)-carbodiimide in water; 0.1 M N-hydroxysuccinimide in water) at a flow rate of 5 uL/min for 10 minute contact time. CD38 was immobilised at 500 nM in Acetate buffer pH4 at 5 uL/min this was repeated until the RUs reached between 500 and 1000 (low density). CEA and CD56 were coupled in acetate buffer pH 4.5. Any excess reactive groups were deactivated by running 1M ethanolamine-HCl over the CM5 chip (again 5 uL/min for 7 mins). The affinities of the anti-CD38, anti-CEA and anti-CD56 dAbs were measured on the biacore as described above.
Epitope mapping was performed to determine whether anti-CD38 dAbs bound to different epitopes on CD38. The assay was performed on BIAcore as described above using a chip coated at medium density (RUs of ˜2000). CD38 was coated on to a CM5 chip at medium density as described above. Using the co-inject function, the first anti-CD38 dAbs was injected at a concentration of 500 nM. Both the first and second anti-CD38 dabs were the co-injected at the same concentration (500 nM). As both dAbs bind different epitopes, the RUs during the second injection increase beyond the level of binding of the first dAb.

[7] = target: T2, CD38 immobilised on Biacore CM5 chip; assay: SPR (Biacore), CD38 immobilised on a CM5 chip; y axis % Response Difference, x axis Time (s)
CD38 on cells [8] = target: T1, CD38 on cells; assay: FACS on SUPB cells (CD38+/CD138-)
CD56 on cells [9] = target: CD56 on cells (UniProt P13591); assay: FACS on H82 cells
CD56 on cells [10] = target: CD56 on cells (UniProt P13591); assay: FACS on H69 cells
CD56 on cells [11] = target: CD56 on cells (UniProt P13591); assay: FACS on H69 cells; H69 cells
[12] = target: T3, CD38 and CD138 co-expressed on cells (CD38+/CD138+ double positive cells) (UniProt P28907 1-300; P18827 23-310); assay: FACS on OPM2 cells
T3 construct: whole, on cells; Two separate membrane proteins on the same cell, not a complex; also called RPMI8226; OPM2

[13] = target: T3, CD38 and CD138 co-expressed on cells …; assay: FACS on RPMI8226 cells, 50 nM
[14] = target: T3, CD38 and CD138 co-expressed on cells …; assay: FACS on double positive cell lines, 25-50 nM
[15] = target: T3, CD38 and CD138 co-expressed on cells …; assay: FACS on OPM2 cells (CD38+/CD138+), surface-bound (4°C) and acid-resistant signal
[16] = target: T3, CD38 and CD138 co-expressed on cells …; assay: FACS on OPM2 cells (CD38+/CD138+), surface-bound (4°C) and acid-resistant (a/w) signal
[17] = target: T3, CD38 and CD138 co-expressed on cells …; assay: FACS cell binding titration on OPM2 cells (CD38+/CD138+), arithmetic mean fluorescence against log conc in nm
[18] = target: T3, CD38 and CD138 co-expressed on cells …; assay: FACS, surface-bound (4°C) and acid-resistant (a/w) signal; cells OPM2 (CD38+/CD138+) by the legend paragraph 60 and paragraph 342, but the key of Fig 6B on the same sheet names Raji cells (CD38+)
[19] = target: T3, CD38 and CD138 co-expressed on cells …; assay: FACS of pegylated samples (5K, 20K, 30K, 40K PEG)
[20] = target: T3, CD38 and CD138 co-expressed on cells …; assay: FACS on OPM2 cells (CD38+/CD138+), ligand with 5K PEG, surface-bound (4°C) and acid-resistant (a/w) signal
[21] = target: T3, CD38 and CD138 co-expressed on cells …; assay: FACS on OPM2 cells (CD38+/CD138+), ligand with 20K PEG, surface-bound (4°C) and acid-resistant (a/w) signal
[22] = target: T3, CD38 and CD138 co-expressed on cells …; assay: FACS on OPM2 cells (CD38+/CD138+), ligand with 30K PEG, surface-bound (4°C) and acid-resistant (a/w) signal
[23] = target: T3, CD38 and CD138 co-expressed on cells …; assay: FACS on OPM2 cells (CD38+/CD138+), ligand with 40K PEG, surface-bound (4°C) and acid-resistant (a/w) signal
CD56 on cells [24] = target: CD56 on cells (UniProt P13591); assay: FACS
CD56 on cells [25] = target: CD56 on cells (UniProt P13591); assay: FACS on H82 cells, dAb tested as dimer
CD56 on cells [26] = target: CD56 on cells (UniProt P13591); assay: FACS on H69 cells (CEA+/CD56+), dAb at 500 nM

B1: DOM11-30 (other)
chain: DIQITQSPSSLSASVGDRITITCRASQKIENDLAWYQQKPGKAPKLLIYYTSILQSGVPSRFSGSGSGTDFTLTISSLQPEDFATYYCQQRRYVPATFGQGTKVEIKR
notes: Anti-CD38 dAb monomer
binding (CD38 on cells [1]): binds
binding (CD38 on cells [2]): binds
binding (CD38 on cells [3]): binds
binding [4]: binds
binding (CD38 on cells [5]): binds
binding [6]: binds
binding [7]: binds

B2: DOM11-3 (other)
chain: DIQMTQSPSSLSASVGDRVTITCRASQNIDSRLSWYQQKPGKAPKLLIYRTSVLQSGVPSRFSGSGSGTDFTLTISSLQPEDFATYYCQQWDMFPLTFGQGTKVEVK
notes: Anti-CD38 domain antibody (dAb) monomer; also called DOM11-3A
binding (CD38 on cells [1]): binds
binding (CD38 on cells [2]): binds
binding (CD38 on cells [8]): binds
binding (CD38 on cells [3]): binds
binding [4]: binds
binding (CD38 on cells [5]): binds
binding [6]: binds
binding [7]: binds

B4: DOM14-48 (protein)
chain: DIQMTQSPSSLSASVGDRVTITCRASRLIGKHLSWYQQKPGKAPKLLIYRSSVLQSGVPSRFSGSGSGTDFTLTISSLQPEDFATYYCQQHATSPRTFGQGTKVEIKR
binding (CD56 on cells [11]): binds

B5: DOM11-3/DOM12-45 anti-CD38/anti-CD138 dual specific ligand (bispecific antibody)
chain: DIQMTQSPSSLSASVGDRVTITCRASQNIDSRLSWYQQKPGKAPKLLIYRTSVLQSGVPSRFSGSGSGTDFTLTISSLQPEDFATYYCQQWDMFPLTFGQGTKVEIKRSSGGGGSGGGGSGGGGSGGGGSGGGGSTDIQMTQSPSSLSASVGDRVTITCRASQDIGDRLRWYQQKPGKAPKLLIYHGSRLESGVPSRFSGSRSGTDFTLTISSLQPEDFATYYCQQQWFRPYTFGQGTKVEIKR
notes: In-line fusion of two dAbs, expressed in E. coli; also called DOM11-3/12-45
binding [12]: binds
binding [13]: binds
binding [14]: binds
binding [15]: binds
binding [16]: binds
binding [17]: binds
binding [18]: binds

B7: DOM14-23 (other)
chain: DIQMTQSPSSLSASVGDRVTITCRASQDIFPFLNWYQQKPGKAPELLIYRASILHSGVPSRFSGSGSGTDFTLTISSLQPEDFATYYCQQIARSPRTFGQGTKVEIKR
notes: Anti-CD56 dAb
binding (CD56 on cells [24]): binds
binding (CD56 on cells [10]): binds
binding (CD56 on cells [25]): binds
binding (CD56 on cells [26]): binds

B8: DOM14-63 (other)
chain: DIQMTQSPSSLSASVGDRVTITCRASQNISRGLRWYQQKPGKAPKLLIYHASKLQSGVPSRFSGSGSGTDFTLTISSLQPEDFATYYCQQYKVFPGTFGQGTKVEIKR
notes: Anti-CD56 dAb monomer
binding (CD56 on cells [11]): binds

Other lines, results leading:

binding (CD56 on cells [9]): binds
binding (CD56 on cells [10]): binds
B3: DOM14-70 (other)
chain: DIQMTQSPSSLSASVGDRVTITCRASQEIGQWLNWYQQKPGKAPKLLIYWGSELQSGVPSRFSGSGSGTDFTLTISSLQPEDFATYYCQQVSRNPFTFGQGTKVEIKR
notes: Anti-CD56 dAb monomer

binding [19]: binds
binding [20]: binds
binding [21]: binds
binding [22]: binds
binding [23]: binds
B6: PEGylated DOM11-3/DOM12-45 (5K, 20K, 30K or 40K PEG) (bispecific antibody)
chain: DIQMTQSPSSLSASVGDRVTITCRASQNIDSRLSWYQQKPGKAPKLLIYRTSVLQSGVPSRFSGSGSGTDFTLTISSLQPEDFATYYCQQWDMFPLTFGQGTKVEIKRSSGGGGSGGGGSGGGGSGGGGSGGGGSTDIQMTQSPSSLSASVGDRVTITCRASQDIGDRLRWYQQKPGKAPKLLIYHGSRLESGVPSRFSGSRSGTDFTLTISSLQPEDFATYYCQQQWFRPYTFGQGTKVEIKR
modifications: engineered C-terminal cysteine coupled to 5K, 20K, 30K or 40K linear MAL-PEG

binding (CD56 on cells [9]): binds
binding (CD56 on cells [10]): binds
B9: DOM14-68 (other)
chain: DIQMTQSPSSLSASVGDRVTITCRASQEISGELTWYQQKPGKAPKLLIYFSSILQSGVPSRFSGSGSGTDFTLTISSLQPEDFATYYCQQRKLRPYTFGQGTKVEIKR
notes: Anti-CD56 dAb monomer

Reference: patent publication US20100021473A1 (DOMANTIS, published 2010)
